Record: PubChem BioAssay AID504744 (Drosophila RNAi Screening Center, 2011)

Test: 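Find genes whose loss alters insulin-driven dAkt phosphorylation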 (primary screen)
System: Drosophila Kc167 cells
Knock-down reagent: long dsRNA against Drosophila genes, 250 ng dsRNA per well of a 384-well plate
Time to read-out: 3 days of knock-down, then overnight serum-free starvation before stimulation
Treatment: bovine insulin at 387 nM for 10 minutes after 12 h without serum
Detection: 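Per-well phospho-dAkt level from an in-cell fluorescent antibody stain, divided by a DNA-dye signal; log2 residuals turned into z-scores that take cell number into account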
Rule for the call: 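Hit in the insulin screen when the two-replicate mean z-score is more extreme than plus or minus 2.5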
In all, the deposit lists about 23,000 reagents; shown is an unselected part of those that have a named target and a result. Of all reagents, 98 (0.43%) are marked active. 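Only hit calls are given; the phospho-dAkt signals, z-scores and hit direction were not deposited.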 Reagent sequences are not shown.

Depletion of CG13159 [DRSC06283] gave: inactive. CG16704 [DRSC00475] gave inactive. For Spf45 [DRSC03826], the values are inactive. After knock-down of CG42541 [DRSC17973] the results were inactive. Knock-down of CG42541 [DRSC18119] gave: inactive. Silencing of CG42541 [DRSC18120] resulted in: inactive.

Srp9 [DRSC10973] showed inactive. Snoo [DRSC01008] showed inactive. Against Snoo [DRSC03004], the entry reads inactive. Snoo [DRSC03035] scored inactive. Depletion of RFeSP [DRSC00702] resulted in: inactive. After knock-down of Lztr1 [DRSC18176], the screen gave inactive.

Silencing of Lztr1 [DRSC18647] gave: inactive. Against Snr1 [DRSC12369] the deposit lists inactive. Against CG14007 [DRSC02339] the deposit lists inactive. Against CG7879 [DRSC08600] the deposit lists inactive. Silencing of GstD7 [DRSC16688] resulted in: inactive. CG2924 [DRSC18525] scored inactive.

Against zpg [DRSC09702] the deposit lists inactive. With knock-down of Rpp14b [DRSC15063], the record shows inactive. Against MME1 [DRSC02714] the deposit lists inactive. Kdm4B [DRSC06862] showed inactive.

Part of the list above, reformatted.
{"Target gene":"Snoo","amplicon":"DRSC01008","activity call":"inactive"}
{"Target gene":"Snoo","amplicon":"DRSC03004","activity call":"inactive"}
{"Target gene":"Snoo","amplicon":"DRSC03035","activity call":"inactive"}
{"Target gene":"RFeSP","amplicon":"DRSC00702","activity call":"inactive"}
{"Target gene":"Lztr1","amplicon":"DRSC18176","activity call":"inactive"}
{"Target gene":"Lztr1","amplicon":"DRSC18647","activity call":"inactive"}
{"Target gene":"Snr1","amplicon":"DRSC12369","activity call":"inactive"}
{"Target gene":"CG14007","amplicon":"DRSC02339","activity call":"inactive"}
{"Target gene":"CG7879","amplicon":"DRSC08600","activity call":"inactive"}

More reagents:
Against Gadd45 [DRSC06033], the entry reads inactive. Knock-down of Cec-Psi1 [DRSC21956] came out at: inactive. TotC [DRSC13449] scored inactive. After knock-down of jumu [DRSC16651] the results were inactive. Silencing of CG42534 [DRSC14722] came out at: inactive. CG42534 [DRSC14759] showed inactive.

With knock-down of CG42534 [DRSC16072], the record shows inactive. BRWD3 [DRSC15369] showed inactive. BRWD3 [DRSC16032] scored inactive. Depletion of Ptp10D [DRSC20272] resulted in: inactive. For Ir64a [DRSC09759], the values are inactive. With knock-down of Ir64a [DRSC09760], the record shows inactive.

Tip60 [DRSC18661] showed inactive. CG40191 [DRSC21041] scored inactive. Silencing of Mco3 [DRSC15926] came out at: inactive. CG7102 [DRSC02647] scored inactive. Against CG7102 [DRSC03007] the deposit lists inactive. Knock-down of elfless [DRSC02451] gave: inactive.

Against CG15649 [DRSC04240], the values are inactive. Silencing of metro [DRSC06341] came out at: inactive. metro [DRSC06725] scored inactive. For Fkbp59 [DRSC03323], the values are inactive. CG15879 [DRSC08487] gave inactive. For CG7607 [DRSC10889] the deposit lists inactive.

For CG8517 [DRSC07205] the deposit lists inactive. With knock-down of cyc [DRSC11337] the results were inactive. Knock-down of CG3589 [DRSC04392] came out at: inactive. After knock-down of CG7920 [DRSC16346] the results were inactive. With knock-down of CG7920 [DRSC21594], the record shows inactive. futsch [DRSC17688] scored inactive.

Depletion of futsch [DRSC17949] resulted in: inactive. After knock-down of futsch [DRSC17952], the screen gave inactive. futsch [DRSC18543] showed inactive. lush [DRSC11364] showed inactive. After knock-down of CG6403 [DRSC16033], the record shows inactive.
